Laboratory results as given in patent US20060194847A1, “Novel 6-substituted 2-aminopyridine derivatives” (priority 2003, published 2006).
pIC50: −log10 of the molar value. Some results were stated once for a whole list of compounds, not compound by compound. For at least one compound, name, drawing or mass did not settle the structure.

Experiments:
iNOS enzyme = target: T1, iNOS enzyme (Homo sapiens, UniProt P35228); experiment: Screen 1: recombinant human NOS enzyme inhibition, formation of L-[3H]citrulline from L-[3H]arginine; assay type: biochemical; details: recombinant human iNOS expressed in E. coli; 3 μM [3H]arginine; enzyme and inhibitor pre-incubated 60 min; read-out: IC50 against the iNOS enzyme
T1 construct: made in house; host or cells: E. coli

[1] = target: T2, human form of induced nitric oxide synthase (Homo sapiens, UniProt P35228); experiment: Screen 2: nitrite accumulation in cytokine-induced DLD-1 cells (Griess reagent); assay type: cell-based; details: DLD-1 human colorectal carcinoma cells induced with gamma-IFN, TNF-alpha, IL-6, IL-1-beta; 5 hours with compound, 100 μM L-arginine; read-out: IC50, inhibition of nitrite accumulation
T2 construct: Nitric oxide synthase was induced in cells by addition of medium containing human recombinant gamma-IFN; endogenous in cells; host or cells: DLD-1 human colorectal carcinoma cells, cytokine-induced

Cc1cc(N)nc(CSCC(N)C(=O)O)c1 [Example 1, S-[(6-Amino-4-methyl-2-pyridinyl)methyl]-L-cysteine diacetate]
pIC50 (iNOS enzyme): > 5.00 | pIC50 [1]: > 4.00
